Measured values reported in paper PMC7862700.
The list shows a part of the results, in another mix than the full data. For part of these data: At the low end of the ranking the order means little.

Protein sequences, listed by entry. Tags and fused reporters are not part of them. Lines headed by an entry give the natural chain unless they say otherwise; changes in a name come on top.
UniProt Q01892: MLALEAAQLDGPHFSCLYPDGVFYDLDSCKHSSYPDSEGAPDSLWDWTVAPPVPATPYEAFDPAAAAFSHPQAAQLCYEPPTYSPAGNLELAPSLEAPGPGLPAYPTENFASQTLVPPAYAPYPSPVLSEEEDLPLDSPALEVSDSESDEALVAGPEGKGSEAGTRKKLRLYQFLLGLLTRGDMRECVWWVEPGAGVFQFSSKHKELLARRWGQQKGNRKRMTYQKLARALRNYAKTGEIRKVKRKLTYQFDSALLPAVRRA
UniProt Q99607: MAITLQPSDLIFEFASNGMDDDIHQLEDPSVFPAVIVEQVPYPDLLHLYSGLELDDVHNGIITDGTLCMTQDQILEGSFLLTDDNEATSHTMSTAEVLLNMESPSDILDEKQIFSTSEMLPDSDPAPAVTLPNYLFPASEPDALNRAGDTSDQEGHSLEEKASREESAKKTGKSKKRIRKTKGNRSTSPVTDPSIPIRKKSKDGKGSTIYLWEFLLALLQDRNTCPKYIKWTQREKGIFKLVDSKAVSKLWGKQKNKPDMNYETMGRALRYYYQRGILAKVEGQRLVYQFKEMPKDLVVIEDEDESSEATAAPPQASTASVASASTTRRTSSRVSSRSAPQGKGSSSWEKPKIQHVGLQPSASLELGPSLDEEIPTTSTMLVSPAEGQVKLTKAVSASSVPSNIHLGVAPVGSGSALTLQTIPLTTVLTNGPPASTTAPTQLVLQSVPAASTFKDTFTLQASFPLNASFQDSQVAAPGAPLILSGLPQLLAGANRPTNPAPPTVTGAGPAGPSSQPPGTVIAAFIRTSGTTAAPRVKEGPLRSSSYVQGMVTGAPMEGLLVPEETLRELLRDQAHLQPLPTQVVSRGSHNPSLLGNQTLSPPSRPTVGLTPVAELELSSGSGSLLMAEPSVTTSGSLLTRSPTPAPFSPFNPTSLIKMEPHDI

How the values were obtained:
Assay in all cases: DAPPL (digital affinity profiling via proximity ligation, sequencing)
Conditions in all cases: 10 mM Tris-HCl pH 7.5, 50 mM NaCl, 1 mM DTT, 4% glycerol, room temperature, 30 min; GST-TFs on glutathione beads, 16-mer random dsDNA library, 0.1% …; high values mean tight binding; double strand, one strand shown; scale: fold enrichment (6-mer frequency, TF over GST control)
[1] = target: T1, ETV2 (UniProt O00321)
T1 sequence: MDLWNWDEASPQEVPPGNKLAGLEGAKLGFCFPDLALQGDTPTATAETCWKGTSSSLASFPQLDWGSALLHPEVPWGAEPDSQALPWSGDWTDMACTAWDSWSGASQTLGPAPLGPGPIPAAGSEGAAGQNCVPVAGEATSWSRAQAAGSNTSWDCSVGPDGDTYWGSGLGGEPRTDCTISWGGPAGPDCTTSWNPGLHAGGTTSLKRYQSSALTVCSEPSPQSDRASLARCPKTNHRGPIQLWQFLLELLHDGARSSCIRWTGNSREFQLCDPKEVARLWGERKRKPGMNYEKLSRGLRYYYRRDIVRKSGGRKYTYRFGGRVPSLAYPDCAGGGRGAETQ

[2] = target: SPIB (UniProt Q01892)
[3] = target: ELF4 (UniProt Q99607)
[4] = target: T2, EHF (UniProt Q9NZC4)
T2 sequence: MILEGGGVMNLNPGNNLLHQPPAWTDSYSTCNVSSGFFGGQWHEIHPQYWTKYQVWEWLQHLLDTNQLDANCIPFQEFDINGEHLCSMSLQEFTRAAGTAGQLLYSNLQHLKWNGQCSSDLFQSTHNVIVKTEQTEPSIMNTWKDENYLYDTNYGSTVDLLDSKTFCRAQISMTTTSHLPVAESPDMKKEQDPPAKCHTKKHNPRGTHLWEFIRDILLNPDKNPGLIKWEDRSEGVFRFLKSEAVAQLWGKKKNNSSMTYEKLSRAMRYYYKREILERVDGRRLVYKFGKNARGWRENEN

[5] = target: T3, ETV3L (UniProt Q6ZN32)
T3 sequence: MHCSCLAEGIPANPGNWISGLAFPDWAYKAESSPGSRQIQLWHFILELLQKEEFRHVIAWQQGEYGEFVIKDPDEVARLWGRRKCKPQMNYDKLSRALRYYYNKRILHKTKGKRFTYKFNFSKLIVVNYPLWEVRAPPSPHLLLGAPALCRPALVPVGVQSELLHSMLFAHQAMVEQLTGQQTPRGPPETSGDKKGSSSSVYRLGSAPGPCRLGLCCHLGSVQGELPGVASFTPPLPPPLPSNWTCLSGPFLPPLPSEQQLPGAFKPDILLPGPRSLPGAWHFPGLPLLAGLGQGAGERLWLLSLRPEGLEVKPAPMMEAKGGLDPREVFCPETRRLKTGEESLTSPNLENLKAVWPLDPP

Sequence: CTACAC
- binding signal [1]: 1.19

Sequence: TTACTT
- binding signal [1]: 1.66

Sequence: GCCTGC
- binding signal [1]: 1.15

Sequence: GCCACT
- binding signal [1]: 1.15

Sequence: ACTTCT
- binding signal [1]: 1.37

Sequence: TAGGGT
- binding signal [1]: 1.16

Sequence: AGATGA
- binding signal [1]: 1.17

Sequence: GCTGCG
- binding signal [1]: 0.876

Sequence: AATTGA
- binding signal [1]: 1.18

Sequence: GCCCAC
- binding signal [1]: 0.999

Sequence: ACCGGC
- binding signal [1]: 0.978

Sequence: CGTCGC
- binding signal [1]: 1.2

Sequence: TTTGGA
- binding signal [1]: 1.22

Sequence: TATGTC
- binding signal [1]: 1.02

Sequence: GGACTC
- binding signal [1]: 1.01

Sequence: TGCAAG
- binding signal [1]: 0.968

Sequence: ATAAAG
- binding signal [1]: 0.956

Sequence: TGCACC
- binding signal [2]: 1.15
- binding signal [3]: 1.19

Sequence: AACTGA
- binding signal [2]: 1.15
- binding signal [3]: 1.05

Sequence: TATCTG
- binding signal [1]: 1.33

Sequence: ATGACC
- binding signal [2]: 1.45
- binding signal [3]: 1.66

Sequence: CGGTTC
- binding signal [1]: 1.39

Sequence: CAGCTA
- binding signal [1]: 0.937

Sequence: CGTCTT
- binding signal [1]: 1.29

Sequence: CACCCG
- binding signal [2]: 1.28
- binding signal [3]: 1.18

Sequence: AGTATG
- binding signal [1]: 0.999

Sequence: GGTAAT
- binding signal [1]: 0.971

Sequence: CGGAAA
- binding signal [2]: 2.22
- binding signal [3]: 1.84

Sequence: GGAAGA
- binding signal [1]: 1.09

Sequence: GATAAT
- binding signal [1]: 0.978

Sequence: GCCTAC
- binding signal [1]: 1.16

Sequence: ACCTTC
- binding signal [1]: 1.71

Sequence: CATGGG
- binding signal [2]: 0.821
- binding signal [3]: 1

Sequence: CCACCT
- binding signal [1]: 0.913

Sequence: CCCGTC
- binding signal [1]: 1.32

Sequence: CGGTCT
- binding signal [2]: 1.16
- binding signal [3]: 1.18

Sequence: CCGCGC
- binding signal [4]: 1.05
- binding signal [1]: 1.29

Sequence: CGGATG
- binding signal [2]: 1.6
- binding signal [1]: 1.39
- binding signal [5]: 1.62

Sequence: CACCGG
- binding signal [4]: 1.13
- binding signal [1]: 0.908
- binding signal [5]: 1.14

Sequence: TAAGCC
- binding signal [4]: 1.08
- binding signal [1]: 1.09

Sequence: CTCCAA
- binding signal [4]: 1.26
- binding signal [1]: 1.36

Sequence: TTTCGG
- binding signal [1]: 1.16

Sequence: TGTGCG
- binding signal [4]: 0.939
- binding signal [1]: 1.2
- binding signal [5]: 0.941

Sequence: TGAGCT
- binding signal [4]: 1.16
- binding signal [2]: 0.989
- binding signal [1]: 1.19
- binding signal [5]: 0.969

Sequence: ACAACC
- binding signal [4]: 1.29
- binding signal [1]: 1.26

Sequence: GAAGTC
- binding signal [2]: 1.22
- binding signal [1]: 1.08
- binding signal [5]: 1.14

Sequence: TGATAC
- binding signal [2]: 1.12
- binding signal [1]: 0.999
- binding signal [5]: 1.07

Sequence: TCATAC
- binding signal [4]: 1.02
- binding signal [1]: 1.15

Sequence: GTCTTG
- binding signal [1]: 0.792
- binding signal [5]: 1.04

Sequence: CATAAA
- binding signal [4]: 0.879
- binding signal [1]: 1

Sequence: TTACTA
- binding signal [1]: 1.34
- binding signal [5]: 1.32

Sequence: CAATGG
- binding signal [4]: 0.951
- binding signal [1]: 0.858
- binding signal [5]: 0.987

Sequence: TCTCGT
- binding signal [1]: 1.27

Sequence: AAGGGT
- binding signal [1]: 0.88
- binding signal [5]: 0.944

Sequence: CACACA
- binding signal [1]: 1.23
- binding signal [5]: 1.22

Sequence: CACGGA
- binding signal [4]: 1.1
- binding signal [1]: 0.936

Sequence: CAACAC
- binding signal [1]: 1.08

Sequence: CCGCTG
- binding signal [1]: 0.923
- binding signal [5]: 1.04

Sequence: TAGAAG
- binding signal [2]: 1.24
- binding signal [1]: 1.18
- binding signal [5]: 1.17

Sequence: GCAACC
- binding signal [4]: 1.11
- binding signal [1]: 0.942

Sequence: CAAGTT
- binding signal [1]: 1.03
- binding signal [5]: 1.1

Sequence: AGGAAC
- binding signal [1]: 1.15
- binding signal [5]: 0.988

Sequence: GCGCGC
- binding signal [1]: 0.86
- binding signal [5]: 1

Sequence: ATGCCG
- binding signal [4]: 1.16
- binding signal [1]: 0.936
- binding signal [5]: 0.986

Sequence: TGGTGC
- binding signal [1]: 0.947

Sequence: TCACCT
- binding signal [4]: 1.21
- binding signal [1]: 1.21

Sequence: ATACTT
- binding signal [1]: 1.53

Sequence: CAAGTA
- binding signal [1]: 0.981

Sequence: CTCCGA
- binding signal [4]: 1.39
- binding signal [1]: 1.19
- binding signal [5]: 1.38

Sequence: CATCAT
- binding signal [4]: 1.07
- binding signal [1]: 1.22
- binding signal [5]: 1.07

Sequence: CCTAAC
- binding signal [4]: 1.31
- binding signal [2]: 1.4
- binding signal [1]: 1.41
- binding signal [5]: 1.45

Sequence: TCACTC
- binding signal [4]: 1.27
- binding signal [1]: 1.35

Sequence: CAACCT
- binding signal [4]: 1.21
- binding signal [1]: 1.28

Sequence: GCCCCA
- binding signal [4]: 0.986
- binding signal [1]: 0.967

Sequence: GGCCCT
- binding signal [4]: 0.963
- binding signal [1]: 1.14
- binding signal [5]: 0.995

Sequence: GTTGTT
- binding signal [4]: 1.12
- binding signal [1]: 0.888

Sequence: CCTGTA
- binding signal [2]: 1.19
- binding signal [1]: 1.21

Sequence: CGAACA
- binding signal [2]: 1.19
- binding signal [1]: 1.22

Sequence: TCCTTA
- binding signal [5]: 1.7

Sequence: ATCCTT
- binding signal [5]: 1.58

Sequence: CACCAA
- binding signal [4]: 1.06
- binding signal [1]: 1.12

Sequence: CCGCAG
- binding signal [4]: 0.998
- binding signal [2]: 1.21
- binding signal [1]: 1.22

Sequence: ACGGAA
- binding signal [2]: 1.93
- binding signal [1]: 1.75

Sequence: CGCGTT
- binding signal [4]: 0.986
- binding signal [2]: 1.05
- binding signal [1]: 1.16

Sequence: GTTCTC
- binding signal [2]: 1.35
- binding signal [1]: 1.33

Sequence: TTACAT
- binding signal [4]: 1.43
- binding signal [2]: 1.3
- binding signal [1]: 1.43

Sequence: GTCTCG
- binding signal [5]: 1.29

Sequence: CGGCCT
- binding signal [4]: 1.08
- binding signal [2]: 1.02
- binding signal [1]: 0.956

Sequence: TCAAGG
- binding signal [2]: 1.04
- binding signal [1]: 1.19

Sequence: GCGCCC
- binding signal [5]: 1.2

Sequence: TCGTTT
- binding signal [4]: 1.22
- binding signal [2]: 1.18
- binding signal [1]: 1.3

Sequence: CACCTC
- binding signal [5]: 1.18

Sequence: GTACGC
- binding signal [2]: 0.988
- binding signal [1]: 0.988

Sequence: GTTTCA
- binding signal [5]: 1.35

Sequence: TCAGCA
- binding signal [5]: 0.989

Sequence: TGCAAT
- binding signal [5]: 1.12

Sequence: ATAGCC
- binding signal [5]: 0.964

Sequence: ACGACA
- binding signal [5]: 1.12

Sequence: CGCCGG
- binding signal [4]: 1.19
- binding signal [2]: 0.955
- binding signal [1]: 1.06

Sequence: GGTCAC
- binding signal [5]: 0.987

Sequence: AGTTCT
- binding signal [4]: 0.988
- binding signal [1]: 0.993

Sequence: ACGACT
- binding signal [5]: 1.28

Sequence: ACAGCA
- binding signal [2]: 0.955
- binding signal [1]: 1.06

Sequence: GTCTCT
- binding signal [5]: 1.35

Sequence: TCGCTG
- binding signal [2]: 1.22
- binding signal [1]: 0.926

Sequence: TTCAAT
- binding signal [5]: 1.47

Sequence: AAATCG
- binding signal [4]: 1.03
- binding signal [1]: 0.977

Sequence: AGCGCT
- binding signal [4]: 0.976
- binding signal [2]: 1.09
- binding signal [1]: 0.947

Sequence: CTATGT
- binding signal [5]: 1.06

Sequence: GGTGTT
- binding signal [4]: 1.04
- binding signal [1]: 1.13

Sequence: CTTTAG
- binding signal [2]: 1.11
- binding signal [1]: 1.23

Sequence: CAGCCT
- binding signal [4]: 0.981
- binding signal [1]: 0.951

Sequence: GTAGCT
- binding signal [4]: 1.12
- binding signal [1]: 0.957

Sequence: TCACCG
- binding signal [2]: 0.997
- binding signal [1]: 0.938

Sequence: AATTTG
- binding signal [5]: 1.3

Sequence: AACGAT
- binding signal [5]: 1.19

Sequence: TAAAAA
- binding signal [5]: 1.37

Sequence: CACATG
- binding signal [2]: 0.987
- binding signal [5]: 1.03

Sequence: GTAATA
- binding signal [4]: 1.2

Sequence: AACACG
- binding signal [5]: 1.15
